Results as given in article PMC2613882, “The FF domains of yeast U1 snRNP protein Prp40 mediate interactions with Luc7 and Snu71” (BMC Biochemistry, 2008).
These are yes or no findings as the source states them, for the method shown. For part of these data: In cells and extracts the contact can be indirect. Some entries that bind do so weakly or less than the wild type. Where a sequence is shown, tags or fusion partners need not be part of it. Each block holds one binder with its values, some of them ahead of it.

Assays:
[1] = molecular target: T1, Prp40FF1-4 (amino acids 129-560), Gal4-DBD fusion (Saccharomyces cerevisiae) (UniProt P33203); assay: two-hybrid; genome-wide screens with isolated Prp40 FF domains or combinations as baits against the prey array; data not shown
T1 sequence: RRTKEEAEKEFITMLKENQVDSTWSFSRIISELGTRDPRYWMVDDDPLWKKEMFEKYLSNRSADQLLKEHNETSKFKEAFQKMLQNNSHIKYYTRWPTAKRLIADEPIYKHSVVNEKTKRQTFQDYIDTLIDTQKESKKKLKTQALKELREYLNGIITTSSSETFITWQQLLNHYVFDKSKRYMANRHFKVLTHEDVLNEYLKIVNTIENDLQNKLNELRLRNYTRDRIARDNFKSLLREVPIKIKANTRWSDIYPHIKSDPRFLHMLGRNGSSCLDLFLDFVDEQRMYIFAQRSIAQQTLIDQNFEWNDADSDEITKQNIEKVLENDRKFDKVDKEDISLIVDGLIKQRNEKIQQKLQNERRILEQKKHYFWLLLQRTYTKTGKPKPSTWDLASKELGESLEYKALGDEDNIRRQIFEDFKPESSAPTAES

[2] = molecular target: T2, Prp40 (Prp40wt, amino acids 1-583) (Saccharomyces cerevisiae) (UniProt P33203); assay: two-hybrid; systematic pairwise tests of all U1snRNP associated proteins with full-length bait and prey constructs
T2 sequence: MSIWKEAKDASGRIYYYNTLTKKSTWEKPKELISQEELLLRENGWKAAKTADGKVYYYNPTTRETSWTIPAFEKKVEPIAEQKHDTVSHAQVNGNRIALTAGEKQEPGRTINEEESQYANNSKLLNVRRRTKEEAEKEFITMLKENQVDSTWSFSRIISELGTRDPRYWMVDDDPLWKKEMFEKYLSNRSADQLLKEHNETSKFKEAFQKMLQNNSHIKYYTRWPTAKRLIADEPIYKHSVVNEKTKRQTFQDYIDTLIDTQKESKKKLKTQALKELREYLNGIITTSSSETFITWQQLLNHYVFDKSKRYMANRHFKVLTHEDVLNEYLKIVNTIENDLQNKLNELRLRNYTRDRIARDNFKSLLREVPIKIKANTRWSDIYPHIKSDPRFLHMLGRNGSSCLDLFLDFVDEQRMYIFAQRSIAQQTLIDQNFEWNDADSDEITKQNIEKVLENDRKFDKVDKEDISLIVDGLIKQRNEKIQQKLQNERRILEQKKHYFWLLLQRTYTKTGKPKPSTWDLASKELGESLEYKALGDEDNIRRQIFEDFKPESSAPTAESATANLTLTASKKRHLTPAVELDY

[3] = molecular target: T2, Prp40 (Prp40wt, amino acids 1-583) (Saccharomyces cerevisiae); assay: two-hybrid; genome-wide screen: Gal4DBD baits (full-length proteins, FF domain baits) mated to an array of most of the ~6,000 S. cerevisiae ORFs as Gal4AD fusions; positives re-arrayed and retested
[4] = molecular target: T3, Snu71 (Snu71 wt, amino acids 1-620) (Saccharomyces cerevisiae), P53207; assay: two-hybrid; systematic pairwise tests of all U1snRNP associated proteins with full-length bait and prey constructs; settings: remark: other sources report otherwise
T3 chain: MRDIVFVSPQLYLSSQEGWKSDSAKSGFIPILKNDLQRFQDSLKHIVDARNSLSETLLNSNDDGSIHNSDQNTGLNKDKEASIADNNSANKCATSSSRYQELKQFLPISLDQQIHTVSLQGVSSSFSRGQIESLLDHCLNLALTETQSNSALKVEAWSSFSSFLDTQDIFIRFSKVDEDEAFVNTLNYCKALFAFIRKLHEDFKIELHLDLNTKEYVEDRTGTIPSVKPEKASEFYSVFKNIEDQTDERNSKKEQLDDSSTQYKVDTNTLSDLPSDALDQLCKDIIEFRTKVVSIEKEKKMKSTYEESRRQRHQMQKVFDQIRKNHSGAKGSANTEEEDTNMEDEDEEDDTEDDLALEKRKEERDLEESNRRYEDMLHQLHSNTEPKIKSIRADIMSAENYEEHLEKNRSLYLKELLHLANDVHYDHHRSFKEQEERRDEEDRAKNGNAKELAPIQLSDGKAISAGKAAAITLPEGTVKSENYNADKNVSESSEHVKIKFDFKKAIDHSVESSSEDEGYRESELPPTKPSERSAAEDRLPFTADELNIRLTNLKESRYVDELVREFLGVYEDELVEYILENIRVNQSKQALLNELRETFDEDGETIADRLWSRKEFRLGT

[5] = molecular target: T4, GST-Prp40FF2 (amino acids 196-264) (Saccharomyces cerevisiae) (UniProt P33203); assay: pull-down; GST-FF domain fusions on glutathione-Sepharose beads incubated with in vitro-translated 35S-labeled protein; 40 mM Hepes pH 8.0, 2.5 mM MgCl2, 0.1 mM EDTA, 1 mM DTT, 0.2% Triton-X-100, 100 mM NaCl; 2 h at 4°C; autoradiography; only the target purified
T4 sequence: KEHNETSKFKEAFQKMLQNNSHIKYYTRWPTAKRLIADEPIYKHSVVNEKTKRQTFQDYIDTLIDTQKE

[6] = molecular target: T5, GST-Prp40FF1 (amino acids 129-201) (Saccharomyces cerevisiae, UniProt P33203 129-201); assay: as above
T5 construct: Prp40, S. cerevisiae, residues 129-201 (Prp40FF1); also called GST-FF1; source: E. coli BL21, purified (glutathione Sepharose 4B)
T5 sequence (looked up): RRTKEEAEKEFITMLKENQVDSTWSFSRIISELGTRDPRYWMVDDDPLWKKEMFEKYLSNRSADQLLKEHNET

[7] = molecular target: T6, GST-Prp40FF1-2 (amino acids 129-264) (Saccharomyces cerevisiae, UniProt P33203 129-264); assay: as above
T6 construct: Prp40, S. cerevisiae, residues 129-264 (Prp40FF1-2); also called GST-FF1-2; source: E. coli BL21, purified (glutathione Sepharose 4B)
T6 sequence (looked up): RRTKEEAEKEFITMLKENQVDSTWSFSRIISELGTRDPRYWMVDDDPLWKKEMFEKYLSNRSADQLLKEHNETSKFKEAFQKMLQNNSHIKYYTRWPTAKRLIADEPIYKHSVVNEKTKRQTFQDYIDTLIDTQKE

[8] = molecular target: T7, Prp40FF1 (amino acids 129-201), Gal4-DBD fusion (Saccharomyces cerevisiae) (UniProt P33203); assay: two-hybrid; mapping: Prp40 FF domain constructs as Gal4DBD baits against full-length clones and fragments of Snu71 and Luc7 as preys
T7 sequence: T5 sequence (looked up)

[9] = molecular target: T8, Prp40FF2-3 (amino acids 196-428), Gal4-DBD fusion (Saccharomyces cerevisiae) (UniProt P33203); assay: as above
T8 sequence: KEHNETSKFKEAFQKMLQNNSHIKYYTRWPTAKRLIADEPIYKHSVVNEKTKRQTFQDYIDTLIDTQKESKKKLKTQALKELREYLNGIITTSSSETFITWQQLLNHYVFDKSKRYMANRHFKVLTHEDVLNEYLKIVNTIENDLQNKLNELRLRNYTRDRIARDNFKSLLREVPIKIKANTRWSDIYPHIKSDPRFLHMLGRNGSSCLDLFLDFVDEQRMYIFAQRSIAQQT

[10] = molecular target: T9, Prp40FF1-3 (amino acids 129-428), Gal4-DBD fusion (Saccharomyces cerevisiae) (UniProt P33203); assay: as above
T9 sequence: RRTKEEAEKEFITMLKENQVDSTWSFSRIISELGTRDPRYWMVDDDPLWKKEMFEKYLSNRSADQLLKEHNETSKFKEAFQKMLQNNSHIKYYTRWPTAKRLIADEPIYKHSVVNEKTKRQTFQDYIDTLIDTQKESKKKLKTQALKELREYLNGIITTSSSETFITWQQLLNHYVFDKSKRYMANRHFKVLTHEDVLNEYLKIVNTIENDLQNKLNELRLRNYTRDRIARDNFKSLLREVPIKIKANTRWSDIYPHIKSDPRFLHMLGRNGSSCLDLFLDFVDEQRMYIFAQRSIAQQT

[11] = molecular target: T8, Prp40FF2-3 (amino acids 196-428), Gal4-DBD fusion (Saccharomyces cerevisiae); assay: two-hybrid; genome-wide screens with isolated Prp40 FF domains or combinations as baits against the prey array; data not shown
[12] = molecular target: T9, Prp40FF1-3 (amino acids 129-428), Gal4-DBD fusion (Saccharomyces cerevisiae); assay: as above

binding [1]: binds
binding [2]: binds
binding [3]: binds
B1: Luc7, full-length, two-hybrid fusion (protein, UniProt Q07508 1-261)
chain: MSTMSTPAAEQRKLVEQLMGRDFSFRHNRYSHQKRDLGLHDPKICKSYLVGECPYDLFQGTKQSLGKCPQMHLTKHKIQYEREVKQGKTFPEFEREYLAILSRFVNECNGQISVALQNLKHTAEERMKIQQVTEELDVLDVRIGLMGQEIDSLIRADEVSMGMLQSVKLQELISKRKEVAKRVRNITENVGQSAQQKLQVCEVCGAYLSRLDTDRRLADHFLGKIHLGYVKMREDYDRLMKNNRTTNASKTATTLPGRRFV

binding [4]: no binding
B2: Luc7, full-length, two-hybrid fusion, Q07508 1-261 (protein)
chain: B1 chain

binding [5]: binds weakly
binding [6]: binds
binding [7]: binds
B3: Luc7, in vitro translated and 35S-labeled (protein, UniProt Q07508 1-261)
chain: B1 chain
modifications: [35S] methionine

binding [8]: binds
B4: Luc7 II (C-terminal fragment of Luc7, aa 93–261), Gal4-AD fusion (domain or fragment, UniProt Q07508 93-261)
chain: FEREYLAILSRFVNECNGQISVALQNLKHTAEERMKIQQVTEELDVLDVRIGLMGQEIDSLIRADEVSMGMLQSVKLQELISKRKEVAKRVRNITENVGQSAQQKLQVCEVCGAYLSRLDTDRRLADHFLGKIHLGYVKMREDYDRLMKNNRTTNASKTATTLPGRRFV

binding [9]: binds
binding [10]: binds
binding [11]: binds
binding [12]: binds
binding [1]: binds
binding [2]: binds
binding [3]: binds
B5: Snu71 (Snu71 wt, amino acids 1-620) (protein, UniProt P53207 1-620)
chain: T3 chain
